These are yes or no findings as the source states them, for the method shown. In cells and extracts the contact can be indirect. Some entries that bind do so weakly or less than the wild type.
Molecular target: T1, IL-13 receptor α-chain 2 (IL13Rα2) (mouse (endogenous in BMMs)) (UniProt O88786)
T1 sequence: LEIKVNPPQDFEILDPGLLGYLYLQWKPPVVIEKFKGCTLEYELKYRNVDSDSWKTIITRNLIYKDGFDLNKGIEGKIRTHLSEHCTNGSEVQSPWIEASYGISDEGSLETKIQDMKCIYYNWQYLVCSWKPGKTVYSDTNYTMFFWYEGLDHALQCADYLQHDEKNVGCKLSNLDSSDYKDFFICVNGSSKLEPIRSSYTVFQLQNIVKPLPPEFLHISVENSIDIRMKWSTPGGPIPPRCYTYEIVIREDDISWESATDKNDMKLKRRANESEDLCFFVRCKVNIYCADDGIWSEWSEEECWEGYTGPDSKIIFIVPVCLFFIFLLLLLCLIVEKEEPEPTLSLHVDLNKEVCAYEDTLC
Assay: co-IP; lysate of mouse BMMs incubated 24 h with or without 100 ng/mL RANKL; anti-Chi3l1 (AF2649) or anti-IL13Rα2 (sc-134,363) on Protein A + G magnetic beads, overnight at 4 °C, washed with 1x TBST; Western blot; species-matched IgG controls

Amino acid sequences for entries named in this document (tags omitted). Residues count along the entry.
UniProt Q61362, residues 30-389: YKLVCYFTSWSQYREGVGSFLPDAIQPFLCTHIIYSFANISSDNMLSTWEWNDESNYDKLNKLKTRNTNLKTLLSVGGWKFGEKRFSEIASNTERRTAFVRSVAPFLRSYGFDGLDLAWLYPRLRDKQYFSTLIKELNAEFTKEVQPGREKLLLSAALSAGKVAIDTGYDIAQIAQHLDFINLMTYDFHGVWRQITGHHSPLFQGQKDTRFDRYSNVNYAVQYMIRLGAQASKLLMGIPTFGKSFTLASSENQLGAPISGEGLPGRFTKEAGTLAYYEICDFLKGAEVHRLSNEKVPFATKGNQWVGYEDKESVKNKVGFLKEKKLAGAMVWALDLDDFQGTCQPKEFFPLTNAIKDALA

“Chitinase 3-like 1 (Chi3l1) (from UniProt Q61362 30-389) (ligand)” was tested, and the binding was “binds”.

Reference: publication PMC10826115
